Experimental findings from PMC5985592 are described below.

The target in the assay is T1, carboxy (C)-terminally Myc-tagged Arb1 (S. pombe) (UniProt Q9P7B8).
T1 sequence: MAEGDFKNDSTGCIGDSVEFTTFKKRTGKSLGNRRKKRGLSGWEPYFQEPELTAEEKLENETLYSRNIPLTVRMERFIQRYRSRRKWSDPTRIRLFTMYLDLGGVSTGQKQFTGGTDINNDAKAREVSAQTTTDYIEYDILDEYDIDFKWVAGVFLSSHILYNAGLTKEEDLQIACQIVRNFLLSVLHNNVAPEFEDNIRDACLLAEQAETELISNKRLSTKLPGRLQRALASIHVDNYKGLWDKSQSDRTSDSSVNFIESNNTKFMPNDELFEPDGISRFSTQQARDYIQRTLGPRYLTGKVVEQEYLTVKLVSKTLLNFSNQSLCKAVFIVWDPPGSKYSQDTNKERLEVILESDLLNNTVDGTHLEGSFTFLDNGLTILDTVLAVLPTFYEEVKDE
The assay can be described thus: co-IP; Myc-IP from soluble extracts of S. pombe cells co-expressing the Myc-tagged bait and FLAG-Ago1; IP buffer (50 mM HEPES-KOH pH 7.5, 140 mM NaCl, 1 mM EDTA, 1% Triton X-100, 0.1% Na-deoxycholate), 4 °C; western blot with anti-Myc and anti-FLAG; wild-type, hsp90-A4, mas5∆, arb2∆ (Arb1-Myc) and wild-type, dcr1∆, hsp90-A4 (Tas3-Myc) backgrounds. In general terms: Immunoblotting shows a protein as a band on a membrane.

These are yes or no findings as the source states them, for the method shown. In cells and extracts the contact can be indirect. Some binding calls cover weakened binding; strength is not graded here. Where a sequence is shown, tags or fusion partners need not be part of it.

B1: N-terminally FLAG-tagged Ago1 (protein, UniProt O74957 2-834)
chain: SYKPSSEIALRPGYGGLGKQITLKANFFQIISLPNETINQYHVIVGDGSRVPRKQSQLIWNSKEVKQYFGSSWMNSVYDGRSMCWSKGDIADGTIKVNIGSESHPREIEFSIQKSSKINLHTLSQFVNSKYSSDPQVLSSIMFLDLLLKKKPSETLFGFMHSFFTGENGVSLGGGVEAWKGFYQSIRPNQGFMSVNVDISSSAFWRNDSLLQILMEYTDCSNVRDLTRFDLKRLSRKFRFLKVTCQHRNNVGTDLANRVYSIEGFSSKSASDSFFVRRLNGEEQKISVAEYFLENHNVRLQYPNLPCILVKNGAMLPIEFCFVVKGQRYTAKLNSDQTANMIRFAVQRPFERVQQIDDFVHQMDWDTDPYLTQYGMKIQKKMLEVPARVLETPSIRYGGDCIERPVSGRWNLRGKRFLDPPRAPIRSWAVMCFTSTRRLPMRGIENFLQTYVQTLTSLGINFVMKKPPVLYADIRGSVEELCITLYKKAEQVGNAPPDYLFFILDKNSPEPYGSIKRVCNTMLGVPSQCAISKHILQSKPQYCANLGMKINVKVGGINCSLIPKSNPLGNVPTLILGGDVYHPGVGATGVSIASIVASVDLNGCKYTAVSRSQPRHQEVIEGMKDIVVYLLQGFRAMTKQQPQRIIYFRDGTSEGQFLSVINDELSQIKEACHSLSPKYNPKILVCTTQKRHHARFFIKNKSDGDRNGNPLPGTIIEKHVTHPYQYDFYLISHPSLQGVSVPVHYTVLHDEIQMPPDQFQTLCYNLCYVYARATSAVSLVPPVYYAHLVSNLARYQDVTADDTFVETSEASMDQEVKPLLALSSKLKTKMWYM
Take B1: the binding result is “binds”.
